Test results: doi:10.1101/2023.10.03.560778
No constants are given. Whether binding was seen depends on the method and setting. Binding seen in cells or lysates may run through a third protein. Here binding means that the protein was enriched with, or labelled near, the bait; the list need not be complete. Where a sequence is shown, tags or fusion partners need not be part of it. Blank lines part the entries; values can stand above or below the molecule they belong to.

The chains behind the UniProt entries cited, without tags or fusion partners.
UniProt O32164: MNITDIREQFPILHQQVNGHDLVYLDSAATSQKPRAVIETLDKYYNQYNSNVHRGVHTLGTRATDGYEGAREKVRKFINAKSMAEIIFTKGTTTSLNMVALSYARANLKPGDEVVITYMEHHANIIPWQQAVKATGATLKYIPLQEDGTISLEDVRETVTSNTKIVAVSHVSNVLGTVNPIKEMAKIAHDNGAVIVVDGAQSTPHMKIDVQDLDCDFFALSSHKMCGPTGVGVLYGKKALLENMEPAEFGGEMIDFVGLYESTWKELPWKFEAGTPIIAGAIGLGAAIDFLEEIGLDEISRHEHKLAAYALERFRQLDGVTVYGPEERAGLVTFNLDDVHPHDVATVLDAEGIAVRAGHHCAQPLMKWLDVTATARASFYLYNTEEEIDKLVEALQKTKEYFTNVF

Target: T1, YFP-YlaN (Bacillus subtilis YlaN with N-terminally fused YFP) (B. subtilis) (UniProt O07638)
T1 sequence: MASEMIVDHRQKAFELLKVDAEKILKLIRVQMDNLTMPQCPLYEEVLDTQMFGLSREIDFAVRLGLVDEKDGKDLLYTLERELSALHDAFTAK
Assay: affinity purification with mass spectrometry

binding: binds
Molecule: SufS (FeS cluster synthesis machinery SufCDSUB), Bacillus subtilis (from UniProt O32164 1-406)

binding: binds
Molecule: SufT (FeS cluster assembly factor), Bacillus subtilis (B. subtilis (endogenous in BD8592))

binding: binds
B1: SufD (FeS cluster synthesis machinery SufCDSUB), Bacillus subtilis (protein, UniProt O32165 1-437)
chain: MTLGTKLSVDQEYLKSFSEKHQEPAWLKNLRLQALEQAEDLPMPKPDKTKITNWNFTNFAKHTVDNEPLSSLEDLTDEVKALIDIENEDKTLYVQRDQTPAHLSLSQELKDKGVIFTDILTAAREHSDLVEKYFMKDGVKVDEHKLTALHAALVNGGAFLYVPKNVQVETPVQAVYVHESNDTALFNHVLIVAEDHSSVTYVENYISTVNPKDAVFNIISEVITGDNASVTYGAVDNLSSGVTTYVNRRGAARGRDSKIEWALGLMNDGDTISENTTNLYGDGTYGDTKTVVVGRGEQTENFTTQIIHFGKASEGYILKHGVMKDSASSIFNGIGKIEHGASKANAEQESRVLMLSEKARGDANPILLIDEDDVTAGHAASVGRVDPIQLYYLMSRGIPKEEAERLVIYGFLAPVVNELPIEGVKKQLVSVIERKVK

binding: binds
B2: QcrA (Fe-requiring protein), Bacillus subtilis (protein, UniProt P46911 1-167)
chain: MGGKHDISRRQFLNYTLTGVGGFMAASMLMPMVRFALDPVLKSTGKQDMVQVVSVDELTKEPQRFDFKINQVDAWYESEESRSAWVFKNGDEIVALSPICKHLGCTVNWNSDPKNPNKFFCPCHYGLYEKDGTNVPGTPPLAPLDHYEQEVKDGFLYLGKAKPKGEG

binding: binds
B3: SufB (FeS cluster synthesis machinery SufCDSUB), Bacillus subtilis (protein, UniProt O32162 1-465)
chain: MAKKMPDIGEYKYGFHDKDVSIFRSERGLTKEIVEEISRMKEEPQWMLDFRLKSLEHFYNMPMPQWGGDLNSLNFDEITYYVKPSERSERSWDEVPEEIKQTFDKLGIPEAEQKYLAGVSAQYESEVVYHNMKEDLEAQGIVFKDTDSALKENEDIFREHWAKVIPPTDNKFAALNSAVWSGGSFIYVPKGVKVETPLQAYFRINSENMGQFERTLIIVDEEASVHYVEGCTAPVYTTNSLHSAVVEIIVKKGGYCRYTTIQNWANNVYNLVTKRTVCEENATMEWIDGNIGSKLTMKYPACILKGEGARGMTLSIALAGKGQHQDAGAKMIHLAPNTSSTIVSKSISKQGGKVTYRGIVHFGRKAEGARSNIECDTLIMDNKSTSDTIPYNEILNDNISLEHEAKVSKVSEEQLFYLMSRGISEEEATEMIVMGFIEPFTKELPMEYAVEMNRLIKFEMEGSIG

binding: binds
B4: GlcF (Fe-requiring protein), Bacillus subtilis (protein, UniProt P94534 1-444)
chain: MTTEKEMKQIQNEFKERMDEGELLNCMRCGFCLPSCPTYIESGFQETHSPRGRIALMKAVADGMIEPDEDVERSLSLCLGCRACEPVCPSGVKYGQLLEEARDIIHQNKKHSLGERVMRKTAFHELFPHQNRMRSAVSLIGLYQRSGLQTAVRKSGMLRVLPEHLRTMEAVLPDVPKSKDMKHRPRFLPSIGPMKKRVAFFSGCLMDTMFLPTNNATLKLLQLAGCDIVIPPEQACCGALHGHSGEKNTGKELAKQNIAAFEALDVDAVITNAGGCGAFLTEYDHLLKDDPEWSERAAAFVQKLKDFSSVLVELDFHQMDLALETPQVVTYQDSCHLRNVMHTSLEPRQLLKSIKGAEFKEMEKADSCCGSAGIYNIVEVEMSMKILDSKMAAVKATEAILIVTANPGCLLQMKLGIEREGLSGKVRAVHLADLLLEAAGHKTS

binding: binds
B5: NarH (Fe-requiring protein), Bacillus subtilis (protein, UniProt P42176 1-487)
chain: MKIKAQIGMVMNLDKCIGCHTCSVTCKNTWTNRSGAEYMYFNNVETKPGIGYPKQWEDQDKYKGGWTLKKGKLELKSGSKTNRLAGLFYNPNQPSIDDYYEPWNYDYETLTNSPQKKHQPVARPKSSLTGDFMNIEWGPNWEDDLAGGHITGLEDPNVQKMEESIKTEFDDVFMMYLPRICEHCINPACVSSCPSGAMYKREEDGIVLVDQNACRSWRYCVSSCPYKKVYFNWQTNKAEKCTLCFPRLEAGLPTICSETCVGRIRYLGVMLYDADKVEEAASVENEKDLYHSQLDVFLDPNDPEVAKLAKEQGIPAEWIEAAQQSPIYKMIIDWKIALPLHPEYRTLPMVWYIPPLSPIMNLFEGKGSRQTAEDIFPAIDQMRIPIDYLAQLLTAGDTDHIRSTLKKMSVMRQYMRAVQTNKSIDPELISSVGLTEQQIEDMYRLLAIAKYDDRFVIPSSHREEVSDLYAEQGSCGLSFSGGPGSCF

binding: binds
B6: SufC (FeS cluster synthesis machinery SufCDSUB), Bacillus subtilis (protein, UniProt P80866 1-261)
chain: MAASTLTIKDLHVEIEGKEILKGVNLEIKGGEFHAVMGPNGTGKSTLSAAIMGHPKYEVTKGSITLDGKDVLEMEVDERAQAGLFLAMQYPSEISGVTNADFLRSAINARREEGDEISLMKFIRKMDENMEFLEMDPEMAQRYLNEGFSGGEKKRNEILQLMMIEPKIAILDEIDSGLDIDALKVVSKGINKMRSENFGCLMITHYQRLLNYITPDVVHVMMQGRVVKSGGAELAQRLEAEGYDWIKQELGIEDETVGQEA

binding: binds
B7: SufA (FeS cluster assembly factor), Bacillus subtilis (protein, UniProt O32113 1-120)
chain: MSNPVTITEAAALHIKDMMKEHEEENAFLRVGVKGGGCSGLSYGMGFEHEKSESDSVFDQHGITVLVDKESLDIMNGTVIDYKQSMLGGGFTIDNPNAIASCGCGSSFRTATNAGKPEEC

binding: binds
B8: SufU (FeS cluster synthesis machinery SufCDSUB), Bacillus subtilis (protein, UniProt O32163 1-147)
chain: MSFNANLDTLYRQVIMDHYKNPRNKGVLNDSIVVDMNNPTCGDRIRLTMKLDGDIVEDAKFEGEGCSISMASASMMTQAIKGKDIETALSMSKIFSDMMQGKEYDDSIDLGDIEALQGVSKFPARIKCATLSWKALEKGVAKEEGGN

binding: binds
B9: Fur (ferric uptake regulator), Bacillus subtilis (protein, UniProt P54574 1-149)
chain: MENRIDRIKKQLHSSSYKLTPQREATVRVLLENEEDHLSAEDVYLLVKEKSPEIGLATVYRTLELLTELKVVDKINFGDGVSRYDLRKEGAAHFHHHLVCMECGAVDEIEEDLLEDVEEIIERDWKFKIKDHRLTFHGICHRCNGKETE

binding: binds
B10: CitB (Fe-requiring protein), Bacillus subtilis (protein, UniProt P09339 1-909)
chain: MANEQKTAAKDVFQARKTFTTNGKTYHYYSLKALEDSGIGKVSKLPYSIKVLLESVLRQVDGFVIKKEHVENLAKWGTAELKDIDVPFKPSRVILQDFTGVPAVVDLASLRKAMAAVGGDPDKINPEIPVDLVIDHSVQVDKAGTEDALAVNMDLEFERNAERYKFLSWAKKAFNNYQAVPPATGIVHQVNLEFLASVVHAIEEDGELVTYPDTLVGTDSHTTMINGIGVLGWGVGGIEAEAGMLGQPSYFPVPEVIGAKLVGKLPNGTTATDLALKVTQVLREKGVVGKFVEFFGPGIAELPLADRATIANMAPEYGATCGFFPVDEEALNYLRLTGRDPEHIDVVEAYCRSNGLFYTPDAEDPQFTDVVEIDLSQIEANLSGPKRPQDLIPLSAMQETFKKQLVSPAGNQGFGLNAEEENKEIKFKLLNGEETVMKTGAIAIAAITSCTNTSNPYVLIGAGLVAKKAVELGLKVPNYVKTSLAPGSKVVTGYLVNSGLLPYMKELGFNLVGYGCTTCIGNSGPLSPEIEEAVAKNDLLITSVLSGNRNFEGRIHPLVKGNYLASPPLVVAYALAGTVNINLKTDPIGVGKDGQNVYFNDIWPSMDEINALVKQTVTPELFRKEYETVFDDNKRWNEIETTDEALYKWDNDSTYIQNPPFFEEMSVEPGKVEPLKGLRVVGKFGDSVTTDHISPAGAIGKDTPAGKYLQEKGVSPRDFNSYGSRRGNHEVMMRGTFANIRIKNQIAPGTEGGFTTYWPTGEVTSIYDACMKYKEDKTGLVVLAGKDYGMGSSRDWAAKGTNLLGIRTVIAESFERIHRSNLVFMGVLPLQFKQGENADTLGLTGKEVIEVDVDETVRPRDLVTVRAINEDGNVTTFEAVVRFDSEVEIDYYRHGGILQMVLREKMKQS
